Results are given in words; binding and its absence hold for the method and conditions named. Binding can be weak; no strength is given.
Tests used:
[1] = biological target: XPF-1 full length (C. elegans) (UniProt G5EBZ1); assay: two-hybrid; other combinations of yeast strains and plasmids (Figure S12): pVV213/pVV212 in AH109/Y187 and Mav203/Mav103 diploids, pDEST22/pDEST32 in Y8800/Y8930 diploids; 30°C
[2] = biological target: XPF-1 full length (C. elegans) (UniProt G5EBZ1); assay: two-hybrid; Gal4 AD (pVV213) and Gal4 DB (pVV212) fusions in Y8800/Y8930 diploid yeast; scored by growth on SC-Leu-Trp-His, SC-Leu-Trp-His+1 mM 3-AT and SC-Leu-Trp-Ade plates; 30°C
[3] = biological target: HIM-18 full length (C. elegans) (UniProt Q22145); assay: two-hybrid; other combinations of yeast strains and plasmids (Figure S12): pVV213/pVV212 in AH109/Y187 and Mav203/Mav103 diploids, pDEST22/pDEST32 in Y8800/Y8930 diploids; 30°C
[4] = biological target: HIM-18 full length (C. elegans) (UniProt Q22145); assay: two-hybrid; Gal4 AD (pVV213) and Gal4 DB (pVV212) fusions in Y8800/Y8930 diploid yeast; scored by growth on SC-Leu-Trp-His, SC-Leu-Trp-His+1 mM 3-AT and SC-Leu-Trp-Ade plates; 30°C

Protein sequences, listed by entry. Tags and fused reporters are not part of them. Lines headed by an entry give the natural chain unless they say otherwise; changes in a name come on top.
UniProt Q22145: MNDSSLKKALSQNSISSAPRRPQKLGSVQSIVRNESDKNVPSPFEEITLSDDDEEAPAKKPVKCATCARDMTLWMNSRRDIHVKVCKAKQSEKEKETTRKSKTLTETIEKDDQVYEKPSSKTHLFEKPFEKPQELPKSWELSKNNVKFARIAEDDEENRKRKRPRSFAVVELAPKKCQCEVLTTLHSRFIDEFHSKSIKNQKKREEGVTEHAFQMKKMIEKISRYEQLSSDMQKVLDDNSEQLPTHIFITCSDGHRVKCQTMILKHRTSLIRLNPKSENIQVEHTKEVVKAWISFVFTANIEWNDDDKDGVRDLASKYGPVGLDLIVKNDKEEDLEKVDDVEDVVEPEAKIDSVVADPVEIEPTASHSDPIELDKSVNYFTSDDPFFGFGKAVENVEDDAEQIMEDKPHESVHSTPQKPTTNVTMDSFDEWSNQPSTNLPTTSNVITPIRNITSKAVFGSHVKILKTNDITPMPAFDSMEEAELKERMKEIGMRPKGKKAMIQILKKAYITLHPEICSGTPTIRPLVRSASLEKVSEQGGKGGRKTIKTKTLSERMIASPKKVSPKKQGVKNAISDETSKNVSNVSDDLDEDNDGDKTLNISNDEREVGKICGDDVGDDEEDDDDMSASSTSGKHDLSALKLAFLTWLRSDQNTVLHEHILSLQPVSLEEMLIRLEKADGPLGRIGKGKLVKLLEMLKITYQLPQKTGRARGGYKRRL

Substance | binding [1] | binding [2] | binding [3] | binding [4]
ERCC-1 full length (from UniProt Q93456) | binds | binds |  | 
HIM-18 full length (from UniProt Q22145) | binds | binds |  | 
XPF-1 full length (from UniProt G5EBZ1) |  |  | binds | binds

From PMC2770170
